Measured values published in US6054163A, “Bacteriocin piscicolin 126” (The University of Melbourne, priority 1995, dated 2000).
Not every detail of the peptide structures is certain; ends, links or a residue may be inferred. Bridges are numbered along the chain shown (N, C = ends). Where no end group is shown, it is not given here.

Columns and labels:
[1] = system: Listeria monocytogenes 4A; assay: Viable count in challenged Devilled Ham Paste; details: 2,048 AU g^-1, devilled ham paste, inoculum 10^3 cfu g^-1, 10° C.
[2] = system: Listeria monocytogenes 4A; assay: Viable count in challenged Ricotta cheese; details: 2,048 AU g^-1, Ricotta cheese, inoculum 10^4 cfu g^-1, 10° C.

Sequence: KYYGNGVSCNKNGCTVDWSKAIGIIGNNAAANLTTGGAAGWNKG (disulfide 9-14) [piscicolin 126]
- Viable count on Listeria Selective Agar ([1]; Day 0): < 2.0 Log cfu g^-1
- Viable count on Listeria Selective Agar ([1]; Day 1): < 2.0 Log cfu g^-1
- Viable count on Listeria Selective Agar ([1]; Day 4): < 2.0 Log cfu g^-1
- Viable count on Listeria Selective Agar ([1]; Day 6): < 2.0 Log cfu g^-1
- Viable count on Listeria Selective Agar ([1]; Day 7): < 2.0 Log cfu g^-1
- Viable count on Listeria Selective Agar ([1]; Day 14): < 2.0 Log cfu g^-1
- Viable count on Listeria Selective Agar ([1]; Day 21): 5.83 Log cfu g^-1
- Viable count on Listeria Selective Agar ([2]; Day 0): 2.12 Log cfu g^-1
- Viable count on Listeria Selective Agar ([2]; Day 1): 2.00 Log cfu g^-1
- Viable count on Listeria Selective Agar ([2]; Day 2): 2.52 Log cfu g^-1
- Viable count on Listeria Selective Agar ([2]; Day 5): 4.08 Log cfu g^-1
- Viable count on Listeria Selective Agar ([2]; Day 7): 4.95 Log cfu g^-1
- Viable count on Listeria Selective Agar ([2]; Day 21): 7.87 Log cfu g^-1
